US9051278B2, “3,4-disubstituted 1H-pyrazole compounds and their use as cyclin dependent kinase and glycogen synthase kinase-3 modulators” (Astex Therapeutics, Ltd., priority 2003, dated 2015)
Some of these results come from one statement about several compounds together.

Protein sequences, listed by entry. Tags and fused reporters are not part of them.
UniProt P06493, whole entry: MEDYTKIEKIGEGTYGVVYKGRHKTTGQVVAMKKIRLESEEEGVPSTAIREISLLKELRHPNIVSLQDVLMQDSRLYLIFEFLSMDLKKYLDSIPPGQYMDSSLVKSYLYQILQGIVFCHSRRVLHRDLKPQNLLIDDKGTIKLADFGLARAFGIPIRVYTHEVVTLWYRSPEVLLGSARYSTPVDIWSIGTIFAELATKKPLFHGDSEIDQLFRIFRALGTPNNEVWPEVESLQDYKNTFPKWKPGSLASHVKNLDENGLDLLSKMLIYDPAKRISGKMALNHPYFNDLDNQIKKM

Target: T1, CDK1/CyclinB (Homo sapiens, UniProt P06493)
T1 construct: purchased Upstate Discovery
Test: CDK1/CyclinB assay
Format: biochemical
Details: protocol of Example 248B or the selectivity protocol

Compound	IC50 [µM]
CN1CCN(c2ccc(CNC(=O)c3n[nH]cc3NC(=O)c3c(F)cccc3F)cc2)CC1 [Example 64]	< 20
CC(C)(C)C1CCC(NC(=O)c2n[nH]cc2NC(=O)c2c(F)cccc2F)CC1 (centres unmarked) [Example 77]	< 20
